Among the data in article PMC7272611 are binding values, retold here.

Protein sequences, listed by entry. Tags and fused reporters are not part of them.
UniProt Q94517: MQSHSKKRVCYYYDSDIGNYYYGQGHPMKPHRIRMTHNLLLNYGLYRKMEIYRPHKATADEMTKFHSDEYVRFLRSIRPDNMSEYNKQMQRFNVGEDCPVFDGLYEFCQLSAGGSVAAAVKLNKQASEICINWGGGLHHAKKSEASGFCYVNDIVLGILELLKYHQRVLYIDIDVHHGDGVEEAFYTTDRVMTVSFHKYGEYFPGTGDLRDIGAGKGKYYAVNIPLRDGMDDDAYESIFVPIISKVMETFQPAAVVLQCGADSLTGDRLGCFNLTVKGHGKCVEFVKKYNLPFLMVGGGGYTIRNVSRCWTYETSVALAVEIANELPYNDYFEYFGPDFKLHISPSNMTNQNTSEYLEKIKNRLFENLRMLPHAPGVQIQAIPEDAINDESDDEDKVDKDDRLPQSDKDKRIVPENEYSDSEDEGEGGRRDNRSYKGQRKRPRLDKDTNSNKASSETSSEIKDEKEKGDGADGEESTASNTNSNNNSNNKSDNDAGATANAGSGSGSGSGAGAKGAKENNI
UniProt Q24572: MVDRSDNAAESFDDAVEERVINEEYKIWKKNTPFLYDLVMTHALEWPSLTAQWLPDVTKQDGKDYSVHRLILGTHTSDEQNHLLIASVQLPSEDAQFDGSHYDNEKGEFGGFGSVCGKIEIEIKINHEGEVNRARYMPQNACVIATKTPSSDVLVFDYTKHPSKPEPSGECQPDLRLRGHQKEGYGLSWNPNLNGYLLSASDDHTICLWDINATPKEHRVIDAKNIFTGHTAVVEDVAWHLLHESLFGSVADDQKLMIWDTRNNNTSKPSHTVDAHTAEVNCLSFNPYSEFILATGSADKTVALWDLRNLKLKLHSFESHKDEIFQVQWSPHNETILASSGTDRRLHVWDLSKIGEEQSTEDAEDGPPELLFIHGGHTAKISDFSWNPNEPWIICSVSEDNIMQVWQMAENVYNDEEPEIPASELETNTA

T1: Piwi (Drosophila (endogenous in OSC)) (UniProt Q9VKM1)
T1 sequence: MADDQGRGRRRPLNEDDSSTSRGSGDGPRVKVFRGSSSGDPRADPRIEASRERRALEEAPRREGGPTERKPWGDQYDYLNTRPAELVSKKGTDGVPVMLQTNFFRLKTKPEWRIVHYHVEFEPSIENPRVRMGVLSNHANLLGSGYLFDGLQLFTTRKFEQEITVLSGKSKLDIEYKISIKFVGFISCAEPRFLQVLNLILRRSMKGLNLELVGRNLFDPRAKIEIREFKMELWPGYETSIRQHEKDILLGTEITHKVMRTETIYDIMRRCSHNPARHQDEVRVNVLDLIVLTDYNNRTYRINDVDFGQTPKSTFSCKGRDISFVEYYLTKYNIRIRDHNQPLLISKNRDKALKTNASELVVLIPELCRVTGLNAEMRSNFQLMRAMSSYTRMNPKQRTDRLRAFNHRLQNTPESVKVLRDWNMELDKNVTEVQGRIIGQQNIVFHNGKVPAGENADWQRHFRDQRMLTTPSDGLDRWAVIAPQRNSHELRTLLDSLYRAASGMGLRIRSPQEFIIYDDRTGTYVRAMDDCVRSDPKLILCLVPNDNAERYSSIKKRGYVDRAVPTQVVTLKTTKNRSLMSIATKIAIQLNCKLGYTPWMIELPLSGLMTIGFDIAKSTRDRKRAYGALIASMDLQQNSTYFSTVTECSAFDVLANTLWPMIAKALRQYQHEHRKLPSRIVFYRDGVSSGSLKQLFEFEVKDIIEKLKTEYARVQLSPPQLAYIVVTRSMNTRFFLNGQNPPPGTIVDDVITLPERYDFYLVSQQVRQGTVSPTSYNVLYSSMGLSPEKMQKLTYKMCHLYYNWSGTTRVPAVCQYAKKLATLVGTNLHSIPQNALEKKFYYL

B1: Pc (protein, UniProt P26017 1-390)
chain: MTGRGKGSKGKLGRDNATDDPVDLVYAAEKIIQKRVKKGVVEYRVKWKGWNQRYNTWEPEVNILDRRLIDIYEQTNKSSGTPSKRGIKKKEKEPDPEPESEEDEYTFTENDVDTHQATTSSATHDKESKKEKKHHHHHHHHHHIKSERNSGRRSESPLTHHHHHHHHESKRQRIDHSSSSNSSFTHNSFVPEPDSNSSSSEDQPLIGTKRKAEVLKESGKIGVTIKTSPDGPTIKPQPTQQVTPSQQQPFQDQQQAEKIASEAATQLKSEQQATPLATEAINTTPAESGAEEEEVANEEGNQQAPQVPSENNNIPKPCNNLAINQKQPLTPLSPRALPPRFWLPAKCNISNRVVITDVTVNLETVTIRECKTERGFFRERDMKGDSSPVA

No constants are given. Whether binding was seen depends on the method and setting. Binding seen in cells or lysates may run through a third protein. Some binding calls cover weakened binding; strength is not graded here.

This test concerns the target T1, Piwi (Drosophila (endogenous in OSC)). As to the kind of experiment: co-IP; IP of endogenous Piwi (anti-Piwi mouse monoclonal) or endogenous MEP-1 (anti-MEP-1 rabbit polyclonal) from OSC nuclear extract (Gtsf1-FH-containing; for Fig. 6a expressing FLAG-FFL-Su(var)2-10), Nuclear Complex Co-IP Kit under stringent conditions, overnight at 4 °C, Dynabeads protein G, control IgG, western blot. On the technique in general: In western blotting, separated proteins are transferred to a membrane and probed.
On to Rpd3 (from UniProt Q94517 1-521), for which the binding result is given as “binds”. The result for p55 (from UniProt Q24572 1-430) reads “binds”. The result for B1 reads “no binding”.
